Experimental findings from article PMC12140318 are described below.

The chains behind the UniProt entries cited, without tags or fusion partners.
UniProt P45973: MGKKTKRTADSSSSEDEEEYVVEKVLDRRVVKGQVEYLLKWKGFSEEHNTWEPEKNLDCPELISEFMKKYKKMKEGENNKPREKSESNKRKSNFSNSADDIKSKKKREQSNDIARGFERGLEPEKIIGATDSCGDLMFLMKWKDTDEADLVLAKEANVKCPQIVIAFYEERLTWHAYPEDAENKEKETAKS

Results are given in words; binding and its absence hold for the method and conditions named. Binding seen in cells or lysates may run through a third protein. Some entries that bind do so weakly or less than the wild type. Where a sequence is shown, tags or fusion partners need not be part of it.

The target of the assay is T1, T113D (Thr→Asp) phosphorylation-mimic mutant S100A9 (pDC315-S100A9T113D-3Flag-SV40-EGFP) (human) (UniProt P06702).
T1 sequence: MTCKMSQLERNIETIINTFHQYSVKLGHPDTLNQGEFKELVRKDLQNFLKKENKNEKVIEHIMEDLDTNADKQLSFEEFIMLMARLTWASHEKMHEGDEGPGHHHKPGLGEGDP
The assay can be described thus: co-IP; 500 µg protein of hAFs with or without nuclear S100A9 or T113D mutant S100A9 overexpression in IP lysis buffer; Flag antibody-coupled beads, or antibodies against Flag, S100A9, CBX5 or MBD3 with protein A agarose, overnight at 4 °C; pre-immune rabbit IgG as negative control; Western blotting. (In general: A western blot detects proteins with antibodies after separation by electrophoresis.)

In the case of “CBX5 (Chromobox protein homolog 5) (from UniProt P45973 1-191)”, the binding result is on record as “binds weakly”.
